# PubChem BioAssay AID1794845 (National Center for Advancing Translational Sciences (NCATS), 2023)
# The chains behind the UniProt entries cited, without tags or fusion partners. Where a name states a change or a piece, a line headed by the entry shows the natural chain unless it says otherwise.
# UniProt C7C422: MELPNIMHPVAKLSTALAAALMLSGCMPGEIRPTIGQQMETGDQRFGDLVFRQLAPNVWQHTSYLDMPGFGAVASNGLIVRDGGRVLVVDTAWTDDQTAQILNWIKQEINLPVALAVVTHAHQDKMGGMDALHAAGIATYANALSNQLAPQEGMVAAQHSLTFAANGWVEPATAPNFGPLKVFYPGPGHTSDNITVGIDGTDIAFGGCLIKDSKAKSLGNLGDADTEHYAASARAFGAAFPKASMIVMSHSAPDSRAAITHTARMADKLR
# Fewer than 10 of roughly 6,900 compounds were called active. Calls follow the shape of the dose curve; as a rule, active = well fitted curve in the direction sought with a large enough effect; inconclusive = small, poorly fitted or top-dose-only effect, or another doubt; inactive = no such curve, though single readings can be large or run the other way. The list shows a part of the results.
# Biological target: Metallo-beta-lactamase type 2 (Klebsiella pneumoniae) (UniProt C7C422)
# Assay: qHTS to identify inhibitors of the New Delhi Metallo-beta-lactamase (NDM): primary screen against the NCATS Gemini Collection; also: % of control where 0% means no effect
# Settings: NDM-1 enzyme, meropenem hydrolysis, absorbance 300 nm; at 38.4 µM (top of the series) unless noted
# Summary of the method: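 Meropenem hydrolysis (50 uM final) by 2 nM NDM-1 read as 300 nm absorbance after 30 min, following >30 min compound–enzyme preincubation in HEPES pH 7.0 with 1 uM ZnSO4 and 0.01% Tween20.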
row,Structure (SMILES),activity % (negative = inhibition)
1,Cc1ocnc1C(=O)N1CCC2(CC1)CN(CC(C)c1ccccc1)C(=O)O2 (centres undefined),inactive: 2.24%
2,O=C(CCc1nnn2c1CN(S(=O)(=O)c1ccccc1)CC2)NCc1ccccc1,inactive: 0.831%
3,CC(=O)N1CCC(CC(=O)N2C[C@@H](Oc3ccccc3)C[C@H]2C(=O)N2CCOCC2)CC1,inactive: 13.6%
4,Cc1n[nH]c(C)c1C(N)C(=O)NCc1ccccc1-n1ccnc1C (centres undefined),inactive: -0.438%
5,Cc1cc(C(=O)N2CCC(OCC3CC3)C2)n(C)n1 (centres undefined),inactive: -16.3%
6,CN(CC1(C)CCOCC1)C(=O)c1ccccn1,inactive: 1.44%
7,Cc1cc(C(=O)NC2CC(c3cc(=O)[nH]cn3)C2)cc(S(N)(=O)=O)c1C (centres undefined),inactive: -0.451%
8,OC[C@@H]1CNC[C@H]1c1nc(C2CC2)no1,inactive: -0.494%
9,O=C(c1coc(CN2CCN(C/C=C/c3ccccc3)CC2)n1)N1CCC[C@H]1CO,inactive: -0.46%
10,Cc1cc(C)cc(NC(=O)N2CCC(CCc3nc(C4CCOCC4)no3)CC2)c1,inactive: -1.69%
11,CC(C)=CC(=O)N[C@H]1C[C@@H](C(=O)N[C@H](Cc2ccccc2)C(N)=O)N(C(=O)C=C(C)C)C1,inactive: 2.83% [at 57.5 µM]
12,COc1cccc(CCC(=O)N2CC(F)(F)C[C@H]2c2nc(C)no2)c1,inactive: -5.3%
13,O=[S+]1([O-])NC2(CCCN(Cc3ccsc3)C2)CNc2ccccc21 (centres undefined),inactive: 1.02%
14,CC(C)N(C)Cc1nnnn1CC(=O)N1CCC(CCn2cccn2)CC1,inactive: 0.467%
15,Cc1nc(-c2ccc(CNC(=O)CN3CCN(c4ncccn4)CC3)cc2)no1,inactive: 16.1%
16,COc1ccc(C(=O)NC[C@H]2Cn3ccnc3CO2)cc1,inactive: 2.14% [at 77.1 µM]
17,C[C@]1(CO)[C@H]2Cc3sc(-c4ccsc4)nc3[C@@H](CC(=O)NCc3ccco3)[C@]2(C)CC[C@H]1O,inactive: 9.27%
18,CC(=O)Nc1ccc(OCC(=O)NCc2ccccc2C)nc1,inactive: 5.71%
19,CN(C)Cc1nnc(C2CC(NC(=O)c3cc(-c4cccn4C)n[nH]3)C2)n1C (centres undefined),inactive: 7.92%
20,COc1ccc(-c2cc(C(=O)NCC3CC3)c3c(C4CCCN4)noc3n2)cc1 (centres undefined),inactive: -2.32%
21,CCn1c(CO)nnc1C1CC(NC(=O)c2ccc3nc(C)oc3c2)C1 (centres undefined),inactive: 0.377%

row,Structure (SMILES),activity % (negative = inhibition)
1,CN1C(=O)CO[C@H]2CN(c3ccc(C#N)cn3)C[C@H]21,inactive: 17.9% [at 77.1 µM]
2,O=C1CC2(CCN([S+](=O)([O-])c3cccc(C(F)(F)F)c3)CC2)Oc2ccccc21,inactive: -0.493%
3,COc1ccc(C(=O)N2C[C@@H]3C[C@H](C2)c2ccc(NS(=O)(=O)c4ccc(OC)cc4)c(=O)n2C3)cc1,inactive: -3.47%
4,Cc1ccc(NC(=O)O[C@@H]2CC[C@]3(C)C(CC[C@@H](O)[C@H]3CC(=O)NCc3ccccc3)[C@]2(C)CO)cc1 (some centres undefined),inactive: 4.33%
5,CN(Cc1cccnc1)Cc1ccccc1C(F)(F)F,inactive: 22.7% [at 57.5 µM]
6,CN1CC(=O)N(CC(=O)N[C@@H]2COCC[C@@H]2OCc2cscn2)C1=O,inactive: 4.43%
7,COCCn1ccc2c(C3=CCOCC3)nc(-c3cccc4[nH]ccc34)cc21,inactive: 30.7% [at 57.5 µM]
8,CC(C)CC(NC(=O)c1ccc(=O)[nH]c1)c1nnc2n1CCNCC2 (centres undefined),inactive: 0.373%
9,COCCn1c(C)cnc1CCNS(=O)(=O)c1c(C)noc1C,inactive: -3.98%
10,CC(NC1CCC2(CCNCC2)CC1)c1nc(-c2ccccn2)no1 (centres undefined),inactive: -11.7%
11,COc1ccc(C(=O)N[C@H](Cc2ccccn2)C2CC(O)C2)cc1F (some centres undefined),inactive: -9.19%
12,CNC(=O)c1cccn2nccc12,inactive: 7.22% [at 77.1 µM]
13,CCNC(=O)[C@@H]1C[C@H](n2cc(CN(C)C(=O)c3cccc(C)c3C)nn2)CN1,inactive: -10.1%
14,N#Cc1ccc(C(=O)N2CCOC[C@H](Oc3ccc(C(F)(F)F)cc3)C2)cc1,inactive: 60.1% [at 57.5 µM]
15,O=C1N(Cc2cccc(F)c2F)CCCC1(O)CNCc1ccccc1 (centres undefined),inactive: -0.81%
16,CCNC(=O)c1c(C)oc2c1CN(Cc1ccc(Br)o1)CC2,inactive: 6.18%
17,COc1ccc(C)cc1NC(=O)N1CCCC1c1nncn1C1CCCC1 (centres undefined),inactive: 2.5%
18,COC(=O)[C@H](NC(=O)[C@@H]1[C@@H](NC(=O)Nc2cccc(OC)c2)CCN1C(=O)c1cnccn1)C(C)C,inactive: 0.399%
19,O=C(C1CCCN1C(=O)C1CC1)N1CCCC(c2nc3ncccc3[nH]2)C1 (centres undefined),inactive: -1.31%
20,CCc1cnc(C2CCN(C(=O)OC(C)(C)C)CC2)[nH]1,inactive: 27.6% [at 57.5 µM]
21,COc1cccc(C(=O)N2CCC3(CC2)CCN(CCc2ccccc2)c2ccccc2O3)c1,inactive: -1.69%

# Three compounds out of the list, arranged by length of the SMILES, rising:
row,Structure (SMILES),activity % (negative = inhibition)
16,CCNC(=O)c1c(C)oc2c1CN(Cc1ccc(Br)o1)CC2,inactive: 6.18%
11,COc1ccc(C(=O)N[C@H](Cc2ccccn2)C2CC(O)C2)cc1F (some centres undefined),inactive: -9.19%
13,CCNC(=O)[C@@H]1C[C@H](n2cc(CN(C)C(=O)c3cccc(C)c3C)nn2)CN1,inactive: -10.1%

# Next records

row,Structure (SMILES),activity % (negative = inhibition)
1,CCN1CCN(C(=O)CCC2CCN(S(=O)(=O)c3ccccc3)CC2)CC1,inactive: 5.75%
2,CC(C)(C)c1coc([C@@H]2COCCN2Cc2ccc(C(=O)O)cc2)n1,inactive: -2.59% [at 57.5 µM]
3,Cn1ccc(NC(=O)[C@@H]2C[C@@H](c3ccc(F)cc3)N(CCOc3ccccc3)C2)n1,inactive: 0.0325% [at 57.5 µM]
4,CCn1ccc(C(=O)N2CCc3nc(NC)nc(C(=O)N4CCCC4)c3C2)n1,inactive: 8.64%
5,CCCc1nc(C(=O)N(C)Cc2cnn(-c3ccccc3C)c2)cs1,inactive: 11.7%
6,Cc1nc(CN(C)C(=O)c2coc(COc3ccc(F)cc3Cl)n2)cs1,inactive: 4.56%
7,COc1ccc(-c2noc([C@@H](C)NCc3ccc(F)cc3)c2C(=O)O)cc1,inactive: 2.58% [at 57.5 µM]
8,O=C1CC2(CCN(S(=O)(=O)c3cccs3)CC2)Oc2ccccc21,inactive: -2.19%
9,O=C(NCC(=O)N1CCOCC1)c1cccc(-c2ccsc2)c1,inactive: -0.153% [at 57.5 µM]
10,COc1cccc(-c2ccc(NC(=O)C3CCCN3Cc3cnn(C)c3)cc2)c1 (centres undefined),inactive: 14.9%
11,Cc1noc(C)c1C(=O)N1CC(n2cc(COCc3ccccc3)nn2)C1,inactive: 7.75%
12,O=C(NCC(O)CO)c1ccc(OC2CCN(CCc3ccccc3)CC2)cc1 (centres undefined),inactive: 1.84%
13,CCCn1ncnc1C(C)Nc1cc(C(C)C)nc2cc(C)nn12 (centres undefined),inactive: 13.3%
14,COc1cccc(CCC(=O)NC2CCN(c3cc(C(F)(F)F)nc(C)n3)CC2)c1,inactive: 6.73%
15,CN1CCCCCCN(C(=O)c2cnccn2)[C@H]2CCC[C@H]2C1=O,inactive: 6.25%
16,c1ccc(COC2CCN(c3nccc(-c4cccnc4)n3)CC2)nc1,inactive: 20.1%
17,Cn1cc(CNC(=O)c2ccc(OC3CCN(S(C)(=O)=O)CC3)c(Cl)c2)cn1,inactive: -0.909%
18,COCC(=O)N(C)Cc1ccc(F)cc1,inactive: 2.13% [at 77.1 µM]
19,O=C(c1ccsc1)N1CCC2(CCC2N2CCOCC2)CC1 (centres undefined),inactive: 8.65%
20,O=C(C1CC1)N1CCOc2ccc(CN3CCCC3)cc2C1,inactive: -0.277%
21,CCN1C(=O)CCc2cc(NC(=O)c3ccn(CC)n3)ccc21,inactive: 11.6%

row,Structure (SMILES),activity % (negative = inhibition)
1,COC1CCN(c2cc(-c3ccsc3)nc3c(C)noc23)CC1,inactive: 9.77% [at 57.5 µM]
2,Cc1nc(C2CC23CCN(C(=O)Nc2ccccc2F)CC3)no1 (centres undefined),inactive: -2.15%
3,CN1CCN(c2ccc(-c3noc([C@@H]4CCCN4Cc4ccccc4)n3)cn2)CC1,inactive: 47.6% [at 57.5 µM]
4,COc1cccc([S+](=O)([O-])N2CCN(CCn3nc4n(c3=O)CCCC4)CC2)c1,inactive: -2.68%
5,CN1CCN(C(=O)c2cc(-c3ccsc3)nc3c2cnn3C)CC1,inactive: 19.5% [at 57.5 µM]
6,COc1ccc(C(=O)N2CCC(N3C(=O)[C@H](OC)[C@@H]3c3ccncc3)CC2)c(OC)c1,inactive: 5.5%
7,O=C(c1cc(-c2ccccc2)n[nH]1)N1CCc2c(nc(-c3ccccc3)[nH]c2=O)C1,inactive: 6.31%
8,CCN(CC)C(=O)N1CCC(c2noc(COc3ccc(F)cc3)n2)C1 (centres undefined),inactive: 3.14%
9,Cc1cnc(C2CC2)n1CCNC(=O)NC1CCCCC1,inactive: 8.29%
10,COc1ccc(OCc2cc(C(=O)NC(CO)C(C)C)no2)c2ccccc12 (centres undefined),inactive: 0.0207%
11,COc1ccc(Cl)cc1C(=O)N1CC(F)(F)C[C@H]1c1nc(C)no1,inactive: 61.7%
12,CN(CCc1noc(C2CN(S(=O)(=O)c3ccccc3)C2)n1)C(=O)c1ccncc1,inactive: -0.943%
13,O=c1c2c(CO)c(-c3ccccc3)nn2ccn1Cc1cc(=O)n2ccccc2n1,inactive: 7.66%
14,Cc1ccc(CN2CC[C@H](c3nc4ccc(C)cc4[nH]3)C2)cc1,inactive: 6.51% [at 57.5 µM]
15,CCCNC(=O)[C@@H]1Cc2cn(Cc3nccn3C)c3cccc(c23)[C@H](CC(C)C)N1,inactive: 6.32% [at 57.5 µM]
16,COC(=O)c1ccc2c(c1)nc1n2[C@@H](CNC(=O)CC(C)(C)C)COC1,inactive: 0.173% [at 57.5 µM]
17,Cc1noc(-c2ccco2)c1C(=O)NCc1cccc(Cl)c1,inactive: 7.68%
18,CC(CN)(c1ccccn1)N1CCOCC1 (centres undefined),inactive: 3.09% [at 77.1 µM]
19,O=C(Nc1ccccc1)c1cc2n(n1)CCN(C(=O)COc1ccccc1)C2,inactive: 0.0882%
20,CCCCS(=O)(=O)N1CC(F)(F)C[C@H]1c1nnc(C)o1,inactive: 0.592%
21,CC(NC1CCC2(CCNCC2)CC1)c1ccc(S(C)(=O)=O)cc1 (centres undefined),inactive: -8.6%
